Assay results reported in the supplement of paper PMC11150407.
Counter-ions that a name gives are not always drawn. In all, about 2,100 compounds went through this assay and about 180 (8.6%) showed an effect of 50% or more. This is one part of the list.

test system: MOLM1 and UCSD/AML1 (averaged); test: cell viability relative to DMSO control (POC); higher = less growth inhibition; conditions: 1 µM; 72 h
Experimental: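 Primary viability screen in the 3q26 EVI1-high AML cell lines MOLM1 and UCSD/AML1 (1.5e3 cells/well, 384-well), compounds at 1 uM for 72 h. ATP CellTiter-Glo read-out given as percent of viable cells over DMSO control (POC), averaged over duplicates. DMSO was the negative control and 5 uM etoposide the positive control. This mapping covers the MicroSource Spectrum and Selleck anticancer libraries (drug names).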

Row | Compound | cell viability
1 | OC[C@H]1O[C@@H](Oc2ccc(O)cc2)[C@H](O)[C@@H](O)[C@@H]1O | 109%
2 | Nc1ccc(S(=O)(=O)c2ccc(N)cc2)cc1 | 99.5%
3 | COc1cc(/C=C/C(=O)O)cc(OC)c1OC | 118%
4 | C=C1C[C@H]2[C@@H]3C=C(C)C4=CC(=O)CC[C@]4(C)[C@H]3CC[C@]2(C)[C@@]1(OC(C)=O)C(C)=O | 78.5%
5 | COC(=O)C1=CO[C@@H](O[C@@H]2O[C@H](CO)[C@@H](O)[C@H](O)[C@H]2O)[C@@H]2[C@@H](C)[C@@H](O)C[C@H]12 | 94.9%
6 | N[C@H]1C(O)O[C@H](CO)[C@@H](O)[C@@H]1O (some centres not stated) | 102%
7 | COC1=CC(c2cc3ccccc3[nH]2)=N/C1=C\c1[nH]c(C)cc1C [Obatoclax mesylate (GX15-070)] | 18.7%
8 | NC(C(=O)O)C(O)C(=O)O (stereo not drawn) [d,l-threo-3-HYDROXYASPARTIC ACID] | 129%
9 | O=C(Nc1ccc(OC(F)(F)F)cc1)c1sccc1NCc1ccnc2ccccc12 | 64.7%
10 | COc1ccc(CN(CCN(C)C)c2ccccn2)cc1 | 103%
11 | CCCNC(C)C(=O)Nc1ccccc1C (configuration not stated) | 100%
12 | CC(COc1ccccc1)N(CCCl)Cc1ccccc1 (configuration not stated) | 91.4%
13 | CC(=O)c1ccc(S(=O)(=O)NC(=O)NC2CCCCC2)cc1 | 104%
14 | CC(C)(C)Cn1c(N)nc2ccc(-c3[nH]c(C(C)(C)C)nc3-c3ccc(F)cc3)nc21 | 91%
15 | OC[C@H]1O[C@H]([S-])[C@H](O)[C@@H](O)[C@@H]1O.[Au+] | 99.2%
16 | Cn1c(=O)c2nc[nH]c2n(C)c1=O | 116%
17 | COc1cc2cc3c4cc(OC)c(OC)cc4cc[n+]3c(C)c2cc1OC | 99.6%
18 | C=C1c2cccc(O)c2C(=O)C2=C(O)[C@]3(O)C(=O)C(C(N)=O)=C(O)[C@@H](N(C)C)[C@@H]3[C@@H](O)[C@H]12 | 100%
19 | c1ccc(C2CN3CCSC3=N2)cc1 (configuration not stated) | 113%
20 | Cc1scc2c1N(C(=O)CN1CCN(C)CC1)c1ccccc1NC2=O | 112%
21 | C[C@@]12CCc3occc3[C@H]1CC[C@@]13C[C@@H](CC[C@H]12)[C@@](O)(CO)C3 | 89.6%
22 | CO/N=C(\C(=O)N[C@@H]1C(=O)N2C(C(=O)O)=C(CSc3nc(=O)c(O)nn3C)CS[C@H]12)c1csc(N)n1 | 102%
23 | O=C(O)CS | 116%
24 | NC1(C(=O)O)CCCC1 | 93.7%
25 | NCCCC[C@H](N[C@@H](CCc1ccccc1)C(=O)O)C(=O)N1CCC[C@H]1C(=O)O | 100%
26 | Cc1ccc(C(=O)Nc2ccc(CN3CCN(C)CC3)c(C(F)(F)F)c2)cc1C#Cc1cnc2cccnn12 | 4.31%
27 | CC(C)(C)NC[C@H](O)COc1nsnc1N1CCOCC1 | 122%

Part of the list above in order of SMILES length, rising:
Row | Compound | cell viability
23 | O=C(O)CS | 116%
19 | c1ccc(C2CN3CCSC3=N2)cc1 (configuration not stated) | 113%
21 | C[C@@]12CCc3occc3[C@H]1CC[C@@]13C[C@@H](CC[C@H]12)[C@@](O)(CO)C3 | 89.6%
